In patent US12083168B2, “Treatment and detection of inherited neuropathies and associated disorders” (University of Miami, priority 2019, dated 2024):
At least one compound was matched to its structure with a doubt left.

Key:
[1] = test system: Sodh2MB01265/MB01265 flies; experiment: Locomotor activity (negative geotaxis assay), Sodh2 mutant flies; assay type: in vivo, Drosophila melanogaster; settings: 80 μM in food, vs yw control flies
Description: […] Equal amount of DMSO was mixed into the fly food as control. The vials were dried at room temperature for 12 h before feeding.
For lifespan assay, 100 newly enclosed female flies of each group were collected and placed in vials of 20 individuals. Flies were transferred into new vials every 2 days and the number of dead flies was counted. Survival data was plotted using Kaplan-Meier plot and compared between groups using log-rank test. For negative geotaxis behavior assay, 10 age-matched female flies were placed in a vial marked with a black line drawn horizontally 8 cm above the bottom. Flies were given 60 min to fully recover from CO2 anesthesia, and were gently tapped onto the bottom and given 10 s to climb. Flies that crossed the 8 cm line were counted. For each vial, this assay was repeated 10 times, and 10 independent vials of each group (a total 100 flies per group) were tested. To minimize observer-expectancy bias, this assay was performed with the examiner masked to the group assignment.

[2] = test system: flies with neuronal specific knockdown of both Sodh1 and Sodh2; experiment: Locomotor activity (negative geotaxis assay), Sodh1 and Sodh2 double knockdown flies; assay type: in vivo, Drosophila melanogaster; settings: neuronal specific knockdown of Sodh1 and Sodh2, 80 μM in food, vs yw control flies
Description: FIG. 7. Treatment with aldose reductase inhibitors Epalrestat and Ranirestat restore locomotor function in Sodh1 and Sodh2 double knockdown flies. Locomotor activity of control flies (yw) feeding with DMSO (dots, first data point from the left for each DAE point indicated), or flies with neuronal specific knockdown of Sodh1 and Sodh2 feeding with DMSO (squares, second data point from the left for each DAE point indicated), 80 μM Epalrestat (squares, third data point from the left for each DAE point indicated), or 80 μM Ranirestat (squares, forth data point from the left for each DAE point indicated). n=10 in each group. Data are presented as mean±s.d. Statistical analysis was performed using Two-Way ANOVA followed by post-hoc Tukey's multiple comparison test. ***P<0.001, ****P<0.0001. […] Equal amount of DMSO was mixed into the fly food as control. The vials were dried at room temperature for 12 h before feeding. For lifespan assay, 100 newly enclosed female flies of each group were collected and placed in vials of 20 individuals. Flies were transferred into new vials every 2 days and the number of dead flies was counted. Survival data was plotted using Kaplan-Meier plot and compared between groups using log-rank test. […] Flies that crossed the 8 cm line were counted. […]

CC(/C=C1\SC(=S)N(CC(=O)O)C1=O)=C\c1ccccc1 [Epalrestat]
locomotor activity [1]: rescued to the levels of yw control flies
locomotor activity [2]: rescued to the levels of yw control flies
